According to the supplement of paper PMC9233669:
This sample is rich in variants without activity.

Experiments:
biotinyl-Met-oxazolone = experiment: self-aminoacylation, catalytic enhancement (BMO) (fold over background); higher = more active; k-Seq, kA / k0A0; sequences stand for … in GGGAAUGGAUCCACAUCUACGAAUUC…UUCACUGCAGACUUGACGAAGCUG
Procedure, shortened: (§1)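 Each biotinyl-aminoacyl-oxazolone, at 2–1250 μM, was incubated with mutagenized RNA pools (0.43 μM) carrying a 21-nt variable region. The 50 μL reactions contained HEPES/NaCl/KCl/MgCl2/CaCl2 buffer with 5% acetonitrile at pH 6.9–7.0 and ran for 90 minutes at room temperature. After streptavidin capture, RNA was measured by qPCR in triplicate and by Illumina sequencing, and catalytic enhancement was calculated as median kA over the uncatalyzed rate from a pseudo-first-order fit of per-sequence fraction reacted.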

biotinyl-Leu-oxazolone = experiment: self-aminoacylation, catalytic enhancement (BLO) (fold over background); higher = more active; k-Seq, kA / k0A0; sequences stand for … in GGGAAUGGAUCCACAUCUACGAAUUC…UUCACUGCAGACUUGACGAAGCUG
Procedure, shortened: as §1

biotinyl-Val-oxazolone = experiment: self-aminoacylation, catalytic enhancement (BVO) (fold over background); higher = more active; k-Seq, kA / k0A0; sequences stand for … in GGGAAUGGAUCCACAUCUACGAAUUC…UUCACUGCAGACUUGACGAAGCUG
Procedure, shortened: as §1

biotinyl-Ile-oxazolone = experiment: self-aminoacylation, catalytic enhancement (BIO) (fold over background); higher = more active; k-Seq, kA / k0A0; sequences stand for … in GGGAAUGGAUCCACAUCUACGAAUUC…UUCACUGCAGACUUGACGAAGCUG
Procedure, shortened: as §1

Sequence	self-aminoacylation (biotinyl-Met-oxazolone)	self-aminoacylation (biotinyl-Leu-oxazolone)	self-aminoacylation (biotinyl-Val-oxazolone)	self-aminoacylation (biotinyl-Ile-oxazolone)
AAAUUUGCUAAGAGUCGCAAG [Fam3.1 aminoacylation ribozyme variant]	1.86	1.9	1.45	–
AAGAUUGCUAAUAGUCGUAAG [Fam3.1 aminoacylation ribozyme variant]	1.15	0.993	1.03	1.11
AAGCUUGCUAAUAGUCGCAAA [Fam3.1 aminoacylation ribozyme variant]	–	1.65	1.76	1.84
AAGCUUGCUGAUAGUCGCAAG [Fam3.1 aminoacylation ribozyme variant]	–	1.73	–	–
AAGGUUGCUAAUAGUCGCAAU [Fam3.1 aminoacylation ribozyme variant]	1.81	1.68	1.46	1.99
AAGGUUGCUAAUAGUCGUAAG [Fam3.1 aminoacylation ribozyme variant]	1.13	0.968	1.17	1.18
AAGUAUGCUAAUAGUCGUAAG [Fam3.1 aminoacylation ribozyme variant]	1.75	1.47	1.36	1.66
AAGUCGGCUAAUAGUCGCAAG [Fam3.1 aminoacylation ribozyme variant]	1.66	1.73	1.61	1.44
AAGUCUGCUAACAGUCGCAAG [Fam3.1 aminoacylation ribozyme variant]	–	1.47	1.33	1.27
AAGUUAGCUAAUAGGCGCAAG [Fam3.1 aminoacylation ribozyme variant]	1.38	1.13	0.983	1.14
AAGUUCGCGAAUAGUCGCAAG [Fam3.1 aminoacylation ribozyme variant]	–	1.55	1.35	1.77
AAGUUCGCUAAUAGUCGCAUG [Fam3.1 aminoacylation ribozyme variant]	2.27	2.88	2.37	2.16
AAGUUCUCUAAUAGUCGCAAG [Fam3.1 aminoacylation ribozyme variant]	1.51	1.63	1.38	1.37
AAGUUUGCCAAUUGUCGCAAG [Fam3.1 aminoacylation ribozyme variant]	1.47	1.15	1.14	1.28
AAGUUUGCUAAUAGUCUCAAG [Fam3.1 aminoacylation ribozyme variant]	1.2	0.984	1.15	1.21
AAGUUUGCUACUAGUCGCCAG [Fam3.1 aminoacylation ribozyme variant]	1.26	0.749	1.1	1.27
AAGUUUGCUAUUAGACGCAAG [Fam3.1 aminoacylation ribozyme variant]	0.712	0.691	0.894	0.577
AAGUUUUCUAAGAGUCGCAAG [Fam3.1 aminoacylation ribozyme variant]	1.32	1.62	1.62	1.65
ACACACUUCAGGCAAUCGGUC [Fam1B.1 aminoacylation ribozyme variant]	1.38	1.42	1.44	1.56
ACGCUUGCUAAUAGUCGCAAG [Fam3.1 aminoacylation ribozyme variant]	–	1.83	1.68	–
AGGCUUGCUAAUAGUCGCAAG [Fam3.1 aminoacylation ribozyme variant]	2.14	2.31	1.96	2.17
AGUCAACUAGGUCAUCGGGUG [Fam2.2 aminoacylation ribozyme variant]	7.24	8.39	4.95	5.91
AUACAUCAAACAAUCGGUCUG [Fam1A.1 aminoacylation ribozyme variant]	0.981	0.975	0.835	0.901
AUACUUCAAAAAAUCGGUCUG [Fam1A.1 aminoacylation ribozyme variant]	0.926	1	0.839	1.01
AUACUUCAAACAAUCGGUAUG [Fam1A.1 aminoacylation ribozyme variant]	0.732	0.732	0.744	0.925

Sequence	self-aminoacylation (biotinyl-Met-oxazolone)	self-aminoacylation (biotinyl-Leu-oxazolone)	self-aminoacylation (biotinyl-Val-oxazolone)	self-aminoacylation (biotinyl-Ile-oxazolone)
AUCACCCUGGUCACCGAGUGA [Fam2.1 aminoacylation ribozyme variant]	17.5	15.4	5.92	6.34
AUCCACCUAGGUCAUUGGGUG [Fam2.2 aminoacylation ribozyme variant]	3.76	3.86	3.24	3.51
AUUACCAUGGUCAUCUAGUGA [Fam2.1 aminoacylation ribozyme variant]	11.1	11.1	5.38	5.41
AUUACCCUGCUCAUCGAGUGU [Fam2.1 aminoacylation ribozyme variant]	1	0.916	0.78	0.991
AUUACCCUGGGCAUCAAGUGA [Fam2.1 aminoacylation ribozyme variant]	1.76	1.73	1.37	1.16
AUUACCCUGGUCAACGAGUAA [Fam2.1 aminoacylation ribozyme variant]	1.19	1.53	1.44	1.29
AUUACCCUGGUCAUCGCAUGA [Fam2.1 aminoacylation ribozyme variant]	3.2	3.5	1.75	2.01
AUUACCCUGGUCUUCGAAUGA [Fam2.1 aminoacylation ribozyme variant]	0.746	0.694	0.728	0.649
AUUAGCCUGGUCGUCGAGUGA [Fam2.1 aminoacylation ribozyme variant]	1.41	1.49	1.17	1.06
AUUAUCCUGGUCAUCGAGAGA [Fam2.1 aminoacylation ribozyme variant]	0.869	0.847	0.989	1.08
AUUCACCCAGGUCAUCUGGUG [Fam2.2 aminoacylation ribozyme variant]	3.99	4.84	2.25	2.35
AUUCACCUGCGUCAUCGGGUG [Fam2.2 aminoacylation ribozyme variant]	7.79	10.6	5.41	5.17
AUUCAGCUAGGUCAUCGGGUA [Fam2.2 aminoacylation ribozyme variant]	3.6	3.67	3.3	3.18
AUUCAGCUAGGUCAUCGGGUC [Fam2.2 aminoacylation ribozyme variant]	1.87	1.92	1.94	1.89
CCACACAUCAAGCAAUGGGUC [Fam1B.1 aminoacylation ribozyme variant]	0.97	0.806	1.08	1.08
CCACACCUCAAGCAUUCGGUC [Fam1B.1 aminoacylation ribozyme variant]	1.98	1.83	–	–
CCACACCUCAAUCAAUCGGUC [Fam1B.1 aminoacylation ribozyme variant]	0.829	0.969	1.14	1.03
CCACACUCCAACCAAUCGGUC [Fam1B.1 aminoacylation ribozyme variant]	1.04	0.85	1.07	1.2
CCACACUUCAACCAAUCGGUG [Fam1B.1 aminoacylation ribozyme variant]	3.66	6.37	2.91	3.05
CCACACUUCAAGCAAUCAGUC [Fam1B.1 aminoacylation ribozyme variant]	0.666	0.85	0.856	0.782
CCACACUUCAAUCAAUCAGUC [Fam1B.1 aminoacylation ribozyme variant]	0.697	0.827	0.814	0.818
CCACACUUCAAUGAAUCGGUC [Fam1B.1 aminoacylation ribozyme variant]	0.698	1.05	0.839	0.949
CCACACUUCACGCUAUCGGUC [Fam1B.1 aminoacylation ribozyme variant]	1.03	0.971	1.17	1.13
CCACACUUCACGGAAUCGGUC [Fam1B.1 aminoacylation ribozyme variant]	1.14	1.65	1.39	1.16
